The structures appear in SMILES notation. Where “and” joins values, the source holds several entries; their conditions need not be identical. Identical values can stand only once. This is one part of the list. These are further read-outs of the screen, such as a control signal, another cell line or another target. No call is given for them. Most of these compounds were active or inconclusive in the main read-out, so they are no random draw.

This test can be described thus: enhancers of SMN2 over SMN1 splicing, cell-based, SMN2/SMN1 luciferase reporters (AID 1598). Conditions: SMN2 vs SMN1 luciferase splicing reporter cells, at 10 µM; SMN1 luciferase ratio: measured here: SMN1 luciferase reporter average; SMN2 luciferase ratio: measured here: SMN2 luciferase reporter average, stronger effect = higher value.
Turning to `CN(C)[C@@H]1C(=O)C(C(N)=O)=C(O)[C@@]2(O)C(=O)C3=C(O)c4c(O)ccc(Cl)c4[C@@](C)(O)[C@H]3C[C@@H]12`, the SMN2 luciferase ratio was found to be 0.96 and the SMN1 luciferase ratio is 0.88.

For the compound `CN1C(=O)C(O)N=C(c2ccccc2)c2cc(Cl)ccc21` (configuration not stated), the SMN1 luciferase ratio stood at 0.8 and the SMN2 luciferase ratio is 0.84.

As for `C/C=C(/C)C(=O)O[C@H]1CC[C@@]2(C)[C@@H]3CC[C@H]4[C@]5(O)C[C@H](O)[C@@]6(O)[C@@H](CN7C[C@@H](C)CC[C@H]7[C@@]6(C)O)[C@]5(O)C[C@@]42O[C@]13O`, the SMN1 luciferase ratio came to 0.92 and the SMN2 luciferase ratio turned out to be 0.9.

Consider `CN1CC[C@]23c4c5ccc(O)c4O[C@H]2C(=O)CCC3[C@H]1C5` (some centres not stated), for which the SMN2 luciferase ratio was found to be 0.88 and the SMN1 luciferase ratio turned out to be 0.88.

For the compound `O=[N+]([O-])c1cc([As](=O)(O)O)ccc1O`, the SMN1 luciferase ratio is 0.94 and the SMN2 luciferase ratio stood at 1.05.

As to `NC(N)=NOCC[C@H](N)C(=O)O`, the SMN1 luciferase ratio worked out at 0.9 and the SMN2 luciferase ratio was found to be 0.85.

With `CO[C@H]1[C@H](O)[C@@H](O[C@H]2CC[C@]3(C=O)C4CC[C@]5(C)[C@@H](C6=CC(=O)OC6)CC[C@]5(O)C4CC[C@@H]3C2)O[C@@H](C)[C@@H]1O` (some centres not stated), the SMN1 luciferase ratio turned out to be 0.04 and the SMN2 luciferase ratio was 0.07.

In the case of `CCC1(CC)C(=O)C=CNC1=O`, the SMN1 luciferase ratio is 0.88 and 1; the SMN2 luciferase ratio was 1 and 0.96.

Consider `CCC1(c2ccccc2)C(=O)NC(=O)NC1=O`, for which the SMN2 luciferase ratio was found to be 1.04 and the SMN1 luciferase ratio was 0.83.

Consider `Nc1ccncc1`, for which the SMN2 luciferase ratio was determined as 0.94 and the SMN1 luciferase ratio turned out to be 1.

In the case of `CN1C2CCC1C(C(=O)O)C(OC(=O)c1ccccc1)C2` (configuration not stated), the SMN1 luciferase ratio is 0.89 and the SMN2 luciferase ratio was found to be 0.95.

For the compound `CN1C2CC(OC(=O)[C@H](CO)c3ccccc3)C[C@H]1CC2O` (some centres not stated), the SMN1 luciferase ratio was found to be 0.88 and the SMN2 luciferase ratio was found to be 0.94.

Consider `CC(=O)OC1CN2CCC1CC2` (configuration not stated), for which the SMN1 luciferase ratio worked out at 0.91 and the SMN2 luciferase ratio was 1.

Turning to `c1ccc2nc(N3CCNCC3)ccc2c1`, the SMN2 luciferase ratio worked out at 0.94 and the SMN1 luciferase ratio is 0.9.

In the case of `NCC(O)c1ccc(O)cc1` (configuration not stated), the SMN1 luciferase ratio came out at 0.95 and the SMN2 luciferase ratio worked out at 0.94.

Regarding `NCC(CC(=O)O)c1ccc(Cl)cc1` (configuration not stated), the SMN1 luciferase ratio stood at 0.96 and the SMN2 luciferase ratio was 0.86.

With `C[C@H]1O[C@@H](O[C@H]2[C@@H](O)C[C@H](O[C@H]3[C@@H](O)C[C@H](O[C@H]4CC[C@]5(C)C6CC[C@]7(C)[C@@H](C8=CC(=O)OC8)CC[C@]7(O)C6CC[C@@H]5C4)O[C@@H]3C)O[C@@H]2C)C[C@H](O)[C@@H]1O` (some centres not stated), the SMN1 luciferase ratio stood at 0.04 and the SMN2 luciferase ratio was 0.08.

As to `C=C(C)[C@H]1Cc2c(ccc3c2O[C@@H]2COc4cc(OC)c(OC)cc4[C@@H]2C3=O)O1`, the SMN2 luciferase ratio stood at 0.39 and the SMN1 luciferase ratio worked out at 0.36.

For the compound `CCNC(C)Cc1cccc(C(F)(F)F)c1` (configuration not stated), the SMN2 luciferase ratio came out at 1.01 and the SMN1 luciferase ratio was determined as 0.91.

As for `N[C@@H](Cc1ccc(N(CCCl)CCCl)cc1)C(=O)O`, the SMN1 luciferase ratio is 0.54 and the SMN2 luciferase ratio was 0.6.

For `CC(Cc1ccc(O)cc1)NCC(O)c1cc(O)cc(O)c1` (configuration not stated), the SMN2 luciferase ratio turned out to be 0.92 and the SMN1 luciferase ratio stood at 0.93.

For the compound `CO[C@H]1[C@H](O)[C@H](O[C@H]2CC[C@]3(C)C4CC[C@]5(C)C(C6=CC(=O)OC6)CC[C@]5(O)C4CC[C@@H]3C2)O[C@@H](C)[C@@H]1O` (some centres not stated), the SMN1 luciferase ratio was found to be 0.04 and the SMN2 luciferase ratio was determined as 0.08.

As to `NC(=O)c1cc([N+](=O)[O-])cc([N+](=O)[O-])c1`, the SMN2 luciferase ratio amounted to 0.85 and the SMN1 luciferase ratio is 0.87.

Turning to `CN1CCc2cc3c(cc2[C@H]1[C@@H]1OC(=O)c2c1ccc1c2OCO1)OCO3`, the SMN1 luciferase ratio came out at 0.84 and the SMN2 luciferase ratio turned out to be 0.84.

In the case of `O=C1CCCN1CC#CCN1CCCC1`, the SMN2 luciferase ratio was determined as 0.86 and the SMN1 luciferase ratio amounted to 0.89.

With `COc1ccc2c3c([nH]c2c1)C(C)=NCC3`, the SMN2 luciferase ratio turned out to be 0.9 and the SMN1 luciferase ratio turned out to be 1.

Consider `CC(C)(C)NCC(O)c1ccccc1Cl` (configuration not stated), for which the SMN1 luciferase ratio turned out to be 0.84 and the SMN2 luciferase ratio amounted to 0.86.

For the compound `C[C@]12CCC3C(CC[C@@H]4C[C@H](O)CC[C@]34C)C1CCC2=O` (some centres not stated), the SMN2 luciferase ratio worked out at 0.93 and the SMN1 luciferase ratio was found to be 0.92.

As for `[N-]=[N+]=CC(=O)OCC(N)C(=O)O` (configuration not stated), the SMN1 luciferase ratio worked out at 0.95 and the SMN2 luciferase ratio came out at 0.77.

Regarding `O=C1CC2OCC=C3CN4CC[C@]56c7ccccc7N1C5[C@H]2[C@H]3CC46` (some centres not stated), the SMN1 luciferase ratio worked out at 0.89 and the SMN2 luciferase ratio turned out to be 0.88.

For `CCCC(C)C1(CC)C(=O)NC(=O)NC1=O` (configuration not stated), the SMN1 luciferase ratio came to 0.93 and the SMN2 luciferase ratio worked out at 0.89.

On to `Clc1ccc(COC(Cn2ccnc2)c2ccc(Cl)cc2Cl)c(Cl)c1` (configuration not stated), for which the SMN2 luciferase ratio is 0.86 and the SMN1 luciferase ratio worked out at 0.83.

As to `CCC1(CCC(C)C)C(=O)NC(=O)NC1=O`, the SMN2 luciferase ratio was 0.84 and the SMN1 luciferase ratio worked out at 0.89.

As to `COC(=O)C1=CCCN(C)C1`, the SMN1 luciferase ratio worked out at 0.86 and the SMN2 luciferase ratio worked out at 1.

Consider `CC[C@@H](CO)NC(=O)[C@@H]1C=C2c3cccc4[nH]cc(c34)C[C@H]2N(C)C1`, for which the SMN2 luciferase ratio turned out to be 0.91 and the SMN1 luciferase ratio was 0.91.

In the case of `CCOC(=O)C1(c2ccccc2)CCN(C)CC1`, the SMN2 luciferase ratio was 0.83 and the SMN1 luciferase ratio turned out to be 0.9.

Source of the values: PubChem BioAssay.
